Test results: US7314858B2, “Retrocyclins: antiviral and antimicrobial peptides” (priority 2001, dated 2008)
Some entries share one result that the patent states for a list of compounds. Some compounds share one range, which may span the group rather than tell each member.

System: HIV-1 strain IIIB
Assay: HIV-1 IIIB infection of H9 cells, p24 antigen ELISA
Assay type: cell-based
Conditions: 20 μg/ml peptide, MOI 10^-2, 9 days post-inoculation
Method: FIG. 1. Circular minidefensins reduce HIV-1 infection of H9 cells. HIV-I strain IIIB (MOI=10^−2) was incubated with 2.5×10^5 H9 cells in the presence or absence of 20 μg/ml RTD-1, RTD-2 or RTD-3. p24 antigen release was monitored by ELISA on days 3, 6, and 9. Assay sensitivity=10 pg/ml.
Immortalized CD4^+ H9 cells, which are permissive for infection with this strain, were maintained in RPMI supplemented with 10% heat-inactivated fetal calf serum (FCS), 10 mM HEPES, 2 mM glutamine, 100 U of penicillin/ml, and 10 μg of streptomycin/ml (R10 media). Cells (2.5×10^5/100 μl) were incubated with virus (multiplicity of infection (MOI)=10^−2) in the presence or absence of 20 μg/ml RTD-1, RTD-2 or RTD-3 for 3 hrs at 37° C./5% CO2. The cells were washed in R10 media, seeded in 48-well tissue culture plates in 1 ml R10 media, and incubated at 37° C./5% CO2 for 9 days. Aliquots of cell supernatant were removed at the specified time points and analyzed by a sensitive ELISA (DuPont NEN) that quantitates p24 antigen of HIV-1. The three circular rhesus minidefensins were similarly active, inhibiting HIV-1 by 100-1000 fold by 9 days post-inoculation (note the logarithmic scale). […]

| Molecule | inhibition of HIV-1 (p24 antigen) |
| --- | --- |
| RTD-2: rhesus circular minidefensin, homodimer of two identical nonapeptide elements (SEQ ID NO:17) (peptide, listed as Macaca mulatta, cyclic homodimer of two nonapeptides; SIGNAL (1)...(20)) MRTFALLTAMLLLVALHAQAEARQARADEAAAQQQPGADDQGMAHSFTRPENAALPLSESARGLRCLCRRGVCQLL | 100-1000 fold |
| RTD-3: rhesus circular minidefensin, homodimer of two identical nonapeptide elements (SEQ ID NO:15) (peptide, listed as Macaca mulatta, cyclic homodimer of two nonapeptides; SIGNAL (1)...(20)) MRTFALLTAMLLLVALHAQAEARQARADEAAAQQQPGTDDQGMAHSFTWPENAALPLSESAKGLRCICTRGFCRLL | 100-1000 fold |
